Data taken from PubChem BioAssay AID1159506, deposited by NCATS (2015).

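Genome-wide siRNA knockdown in TC32 Ewing sarcoma cells, comparing luciferase light from an NR0B1-promoter reporter with a CMV-promoter reporter 48 hours after transfection.
Each siRNA was applied at 20 nM.
A z-score of the log NR0B1-over-CMV signal, less the median of siRNAs with the same seed; more negative means a stronger specific loss of the NR0B1 reporter.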

The strongest results of the screen are mostly left out here.
Sequences are the guide (antisense) strand, without overhang.

UACUAUAGCGGGAUAUUCC against UPF3B read seed-corrected z-score 0.6515.
UCGAGAAUCACGAAUAGCA against IL36B read seed-corrected z-score 0.1497.
UGGAGUACCACACUUGUCC against FAM171B read seed-corrected z-score 0.1833.
AAUACUUCAAAGUCAGUUU against PRKAB1 read seed-corrected z-score -0.04677.
UAUGGAUCAAUUUCACAAA against SEC61G read seed-corrected z-score 0.4279.
UAUAUACUUUGAGUCGUUG against SETD1A read seed-corrected z-score -0.8928.
UGGACAUAAAAGUCGAUGC against FBXO30 read seed-corrected z-score -0.2024.
UCCUGUCUGUAGAUAAUGC against SIT1 read seed-corrected z-score 1.407.
UGUAUUACCAGAUCCACAC against DNM3 read seed-corrected z-score -0.2243.
UCUUGUAUAAUUCAAUGAC against AK4 read seed-corrected z-score 0.4112.
AUUUUGUCCGGGAAGACUU against CSTA read seed-corrected z-score 1.22.
UGAGGUGUAAGGCUAGACC against RAB3GAP2 read seed-corrected z-score -0.8107.
UAUUAGUCAAAAUGACAGC against CDH19 read seed-corrected z-score -0.368.
UAGCUUUUCAAAGCGAGCC against LIN7A read seed-corrected z-score -0.04826.
UACUGGGUGACGAAGUGCU against PSAPL1 read seed-corrected z-score 1.014.
AUGGUGACCAAGUAGAUCC against OR8A1 read seed-corrected z-score -0.959.
UUCCAAUUUAGUUCGAUUU against TMEM59 read seed-corrected z-score 0.401.
UGAAGUUCCAGGGUUCAUC against ZNF354B read seed-corrected z-score 0.548.
UAAUGUCAUACAUAGCUUU against LOC441167 read seed-corrected z-score 0.1408.
AUGAUUAUCAGCAAUUCUC against SUMO1 read seed-corrected z-score -0.3806.
UGUAGACCCGGAUCACCUC against EHD3 read seed-corrected z-score 0.07896.
UCUGUUCCCAUAGUUCACA against TTC38 read seed-corrected z-score 0.9034.
UUUUCGGUCAAAUCCUUCC against PCSK2 read seed-corrected z-score -0.2497.
AUGGUAGUCACUACUAUGG against GRIA3 read seed-corrected z-score 0.949.
UAGGUCUUGAUAAACAGCC against FRG2B read seed-corrected z-score -1.046.
UUGCAAAUAAUCGUUGUCU against STEAP1B read seed-corrected z-score 0.3424.
UUAGCAAAGUCUUAGAAAG against RFWD2P1 read seed-corrected z-score -0.8387.
UUCUGGAAAGUUGAUGGGC against C11orf52 read seed-corrected z-score -0.2122.
UUUGUGACAAAGGAGCCCU against MCAT read seed-corrected z-score -1.589.
UCGUAGAUUUGUAUUAUCC against IL1RL2 read seed-corrected z-score -0.5794.
UCAGUAGUGAGGGAAGGCA against RTP1 read seed-corrected z-score -1.684.
AACCAGAACAGAGAGAACC against LOC729451 read seed-corrected z-score 0.01143.
UCACGUAGAUUAUUCUUCU against RPL22 read seed-corrected z-score 0.568.
UAGAGAAAAGUGUGGUCUC against C14orf1 read seed-corrected z-score -0.4406.
AAAGCUUCAUAGCACAUUC against SPRR1B read seed-corrected z-score 0.03117.
UUAUCUAAAACAGUUUGUC against VPS37A read seed-corrected z-score 0.7596.
UAGACGAUAAAUAUUCACC against CHD1 read seed-corrected z-score -0.4881.
AAAUUACCCACACCCAUUG against PLEKHH3 read seed-corrected z-score 0.8907.
UGACAUUCGCUUCUCAUGC against NFIB read seed-corrected z-score 1.32.
UUAGAGACUACAUCUCGGC against KRCC1 read seed-corrected z-score -0.5537.
UCUCAUACUUCUGAAGUUC against USP29 read seed-corrected z-score -0.3704.
UUUCAAUUAUCUCACAGUC against ZBTB6 read seed-corrected z-score -0.2704.
UGUUCGGAAACUUGUAUCU against CDHR5 read seed-corrected z-score 0.4776.
UUCGAGUAGAGAUUGAGGC against PCDHGA2 read seed-corrected z-score 0.3344.

The first 5 entries again:

Result for UACUAUAGCGGGAUAUUCC against UPF3B was seed-corrected z-score 0.6515.
Result for UCGAGAAUCACGAAUAGCA against IL36B was seed-corrected z-score 0.1497.
Result for UGGAGUACCACACUUGUCC against FAM171B was seed-corrected z-score 0.1833.
Result for AAUACUUCAAAGUCAGUUU against PRKAB1 was seed-corrected z-score -0.04677.
Result for UAUGGAUCAAUUUCACAAA against SEC61G was seed-corrected z-score 0.4279.